# Patent EP0135379 (dated 1985)
# Experiment: general procedure: Boc solid-phase peptide synthesis; chloromethylated polystyrene (Merrifield) resin; benzhydrylamine resin; DCC/HOBt (DCC/DMAP for Pmp)
# Details: whole synthesis, scale 0.5 mmoles
substance,measurement,value
Pmp-D-Tyr(Et)-Phe-Val-Asn-Cys(OH),isolated mass,65 mg
same,isolated yield,16%
